Data reported in patent US20080299674A1, “Novel Isonitrile Compound, Its Method Of Manufacture, A Marine Fouling Organism Larva Fluorescent, And A Method Of Detecting This Marine Fouling Organism Larva Using Said Marker” (priority 2004, published 2008).
At least one compound was matched to its structure with a doubt left.

Tests used:
[1] = system: artemia; experiment: Fluorescent labelling in seawater, co-present artemia; conditions: 1 ml of 1 mg/ml DMSO solution in 100 ml seawater, 2 hours; UV-B light filter
[2] = system: rotifers; experiment: Fluorescent labelling in seawater, co-present rotifers; conditions: 1 ml of 1 mg/ml DMSO solution in 100 ml seawater, 2 hours; UV-B light filter
[3] = system: barnacle, B. amphitrite cipris larvae; experiment: Fluorescent labelling of barnacle cypris larvae in seawater, fluorescence microscopy; set-up: species or system Balanus Amphitrite; conditions: 1 ml of 1 mg/ml DMSO solution in 100 ml seawater, 2 hours; UV-B light filter (355-425 nm excitation, 470 nm absorption)
[4] = system: cypris larvae; experiment: Labelling of cypris larvae, formaldehyde fixing, observation after preservation in refrigerator; conditions: 10 μg/ml, 2 hours, refrigerator 1 month

[C-]#[N+]C(C)(C)CCCCCCCCCCNS(=O)(=O)c1cccc2c(N(C)C)cccc12 [Example 1, N-(11-isocyano-11-methyldodecyl) dansyl amide] was tested, and the fluorescence of artemia [1] was “fluorescence is not observed”, the fluorescence of rotifers [2] was “fluorescence is not observed” and the “fluorescence of barnacle cypris larvae” value [3] was “glowing turquoise green”. For the same compound, the “characteristic (selective) detection of cypris larvae” value ([4]; fixed in 10% neutral formaldehyde) was “cypris larvae alone were detected characteristically” and the “fluorescence of fixed cypris larvae compared with immediately after processing” value ([4]; fixed in seawater with 10% neutral formaldehyde, UV-B light filter) was “identical fluorescence was observed”.
